Values are relative to the signal before dosing, not to a vehicle control; the signal also falls without drug.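 Labels refer to human fibroblasts, largely primary: uterine (C12385, HUF), lung (H6013), bone (Hs27A), adrenal (HADF), skin (WS1), plus mammary HMF and breast cancer-associated Hs343T. Cancer lines are basal-like or mesenchymal-like triple-negative breast cancer. The paper counts as hits responses shifting over 3x the replicate standard deviation. The tissue of the other fibroblasts is not given here.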
Tested on: MDAMB231
Experiment: relative JC-1 red fluorescence (viability) vs pre-drug, coculture with fibroblast (fraction); higher = more viable cancer cells
Protocol: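 JC-1 labelled TNBC cells cocultured 1:1 (1,500 cells each) with CellTrace Violet stained primary or stromal fibroblasts in 384-well plates in FluoroBrite medium, treated with one of 42 anticancer drugs at 0.1, 1, 10 or 100 uM. JC-1 red fluorescence (mitochondrial integrity in cancer cells only) was read by plate reader every 8 h for 72 h. Values are normalised to each well's pre-drug value. The stock of one drug was tenfold lower, so its dose labels may be too high.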

N.N.[Cl][Pt][Cl] [Cisplatin]
relative JC-1 red fluorescence
Conditions	8 h	16 h	24 h	32 h	40 h	48 h	56 h	64 h	72 h
0.1 µM, coculture fibroblast: C12385	0.7903	0.742	0.707	0.672	0.619	0.597	0.564	0.564	0.554
0.1 µM, coculture fibroblast: H6013	0.89	0.83	0.8	0.777	0.736	0.713	0.697	0.678	0.6331
0.1 µM, coculture fibroblast: H6019	0.728	0.6663	0.617	0.5887	0.539	0.525	0.484	0.464	0.435
0.1 µM, coculture fibroblast: H6076	0.873	0.789	0.7407	0.704	0.667	0.626	0.597	0.578	0.564
0.1 µM, coculture fibroblast: H6231	0.9088	0.811	0.739	0.679	0.63	0.596	0.562	0.541	0.522
0.1 µM, coculture fibroblast: HADF	0.8754	0.8356	0.791	0.75	0.714	0.67	0.66	0.657	0.609
0.1 µM, coculture fibroblast: HCFa	0.897	0.846	0.802	0.77	0.7301	0.672	0.6327	0.597	0.54
0.1 µM, coculture fibroblast: HCPF	0.916	0.853	0.789	0.76	0.706	0.661	0.618	0.59	0.575
0.1 µM, coculture fibroblast: HHSteC	0.8802	0.84	0.794	0.731	0.684	0.649	0.61	0.593	0.558
0.1 µM, coculture fibroblast: HMF	0.848	0.767	0.7	0.649	0.601	0.5558	0.5246	0.511	0.501
0.1 µM, coculture fibroblast: HPFa	0.9332	0.898	0.829	0.78	0.7537	0.712	0.66	0.627	0.57
0.1 µM, coculture fibroblast: HUF	0.805	0.6956	0.697	0.587	0.521	0.509	0.461	0.458	0.439
0.1 µM, coculture fibroblast: Hs5	0.904	0.835	0.747	0.689	0.631	0.572	0.532	0.498	0.472
0.1 µM, coculture fibroblast: Hs27A	0.877	0.811	0.765	0.734	0.678	0.604	0.613	0.598	0.559
0.1 µM, coculture fibroblast: Hs343T	0.834	0.7717	0.704	0.677	0.625	0.578	0.531	0.512	0.487
0.1 µM, coculture fibroblast: WS1	0.7379	0.666	0.643	0.576	0.53	0.516	0.484	0.479	0.468
1 µM, coculture fibroblast: C12385	0.77	0.734	0.718	0.685	0.531	0.46	0.444	0.468	0.475
1 µM, coculture fibroblast: H6013	0.889	0.848	0.813	0.802	0.77	0.748	0.734	0.712	0.671
1 µM, coculture fibroblast: H6019	0.76	0.709	0.668	0.6287	0.586	0.5729	0.516	0.494	0.46
1 µM, coculture fibroblast: H6076	0.865	0.782	0.73	0.698	0.651	0.607	0.599	0.585	0.576
1 µM, coculture fibroblast: H6231	0.867	0.7852	0.713	0.683	0.629	0.605	0.581	0.566	0.541
1 µM, coculture fibroblast: HADF	0.876	0.845	0.814	0.778	0.753	0.727	0.708	0.69367	0.6423
1 µM, coculture fibroblast: HCFa	0.893	0.836	0.778	0.723	0.675	0.633	0.597	0.567	0.525
1 µM, coculture fibroblast: HCPF	0.838	0.764	0.719	0.696	0.644	0.61	0.587	0.569	0.556
1 µM, coculture fibroblast: HHSteC	0.8975	0.8696	0.826	0.778	0.749	0.712	0.677	0.658	0.621
1 µM, coculture fibroblast: HMF	0.819	0.745	0.693	0.663	0.626	0.592	0.573	0.566	0.547
1 µM, coculture fibroblast: HPFa	0.899	0.889	0.864	0.828	0.813	0.799	0.743	0.709	0.655
1 µM, coculture fibroblast: HUF	0.821	0.7148	0.738	0.64	0.572	0.56	0.515	0.51	0.498
1 µM, coculture fibroblast: Hs5	0.87	0.796	0.736	0.676	0.632	0.5765	0.55	0.53383	0.5143
1 µM, coculture fibroblast: Hs27A	0.8714	0.8471	0.7982	0.775	0.741	0.698	0.699	0.686	0.646
1 µM, coculture fibroblast: Hs343T	0.844	0.75	0.691	0.655	0.596	0.542	0.5	0.483	0.455
1 µM, coculture fibroblast: WS1	0.724	0.661	0.597	0.543	0.493	0.464	0.4202	0.4139	0.39

— the supplement of paper PMC6078165
